Residue numbers refer to the chain shown, from its start. These are yes or no findings as the source states them, for the method shown. Binding can be weak; no strength is given. For some of these results: Where a sequence is shown, tags or fusion partners need not be part of it.
B1: CGH-1_(248–420) wild type (CGH-1 RecA2 domain) (domain or fragment, UniProt Q95YF3 248-420)
chain: EELTLLGVTQYYAFVQEKQKVHCLNTLFRKLQINQSIIFCNSTQRVELLAKKITEIGYSCYYIHSKMAQNHRNRVFHDFRQGNCRNLVCSDLLTRGIDIQAVNVVINFDFPRNAETYLHRIGRSGRFGHLGVAINLITYEDRHTLRRIEQELRTRIEPIPKTVDPKLYVADQQ
B2: CGH-1_(248–420) 4A mutant (His269, Cys270, Thr273 and Leu274 to Ala) (domain or fragment, UniProt Q95YF3 248-420)
chain: B1 chain with H22A, C23A, T26A, L27A

Amino acid sequences for entries named in this document (tags omitted). A change or cut given only in a name is not applied to a line headed by its entry.
UniProt Q21740: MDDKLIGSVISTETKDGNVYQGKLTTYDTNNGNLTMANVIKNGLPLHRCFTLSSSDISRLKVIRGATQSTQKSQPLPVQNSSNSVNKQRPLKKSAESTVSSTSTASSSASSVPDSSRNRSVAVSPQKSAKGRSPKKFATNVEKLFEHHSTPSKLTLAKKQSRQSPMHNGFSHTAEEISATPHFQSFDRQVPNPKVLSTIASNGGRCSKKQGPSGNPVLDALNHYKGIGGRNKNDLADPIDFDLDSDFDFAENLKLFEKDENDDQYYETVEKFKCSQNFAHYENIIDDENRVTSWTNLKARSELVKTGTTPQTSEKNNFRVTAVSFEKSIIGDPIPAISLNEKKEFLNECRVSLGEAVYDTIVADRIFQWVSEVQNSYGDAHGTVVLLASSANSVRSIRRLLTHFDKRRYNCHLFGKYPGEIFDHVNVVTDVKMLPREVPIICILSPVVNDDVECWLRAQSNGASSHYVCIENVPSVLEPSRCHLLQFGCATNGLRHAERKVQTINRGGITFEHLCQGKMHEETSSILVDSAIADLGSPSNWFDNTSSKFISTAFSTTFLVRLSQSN

How the values were obtained:
[1] = target: GST-EDC-3_(230–566) (C. elegans) (UniProt Q21740); experiment: pull-down; GST-EDC-3_(230-566) on GST resin, 50 μg CGH-1_(248-420) with 0, 12.5, 25 or 50 μM PATR-1 peptide, PBS, 2 h, SDS-PAGE; both purified
[2] = target: GST-EDC-3_(230–566) (C. elegans) (UniProt Q21740); experiment: pull-down; about 100 μg GST or GST-EDC-3_(230-566) on GST resin, ~50 μg CGH-1_(248-420) or 4A mutant, PBS, 2 h, five washes, SDS-PAGE; both purified
[3] = target: GST-EDC-3_(230–566) (C. elegans) (UniProt Q21740); experiment: pull-down; GST-EDC-3_(230-566) on GST resin, 50 μg CGH-1_(248-420) without or with the same amount of CAR-1_(184-268), PBS, 2 h, SDS-PAGE; both purified

| Binder | binding [1] | binding [2] | binding [3] |
| --- | --- | --- | --- |
| B1 | binds | binds | binds |
| B2 | – | binds | – |
